# The whole screen tested about 360,000 compounds, of which about 780 (0.22%) were called active. The inconclusive results got no clear call from the source; some entries with a clear call stand among them for comparison. No stated cut-off is given here; in the data, active means inhibition above about 35% (passing the limit was not always enough); inconclusive means no clear call, values can overlap the other calls.
# Test system: Botulinum neurotoxin type F light chain protease (Clostridium botulinum)
# Experiment: BoNT/F light chain protease inhibitors, primary screen, biochemical, flow cytometry, MLPCN library (AID 588497); further: plate controls were buffer without enzyme for full effect and enzyme alone for no effect
# Settings: Multiplex microsphere protease cleavage assay, at 10 µM, active compounds read high
row,Compound,inhibition
1,Cn1cc([N+](=O)[O-])c(C(=O)Nc2ccc(Br)cn2)n1,inactive: -5.1%
2,NC(=O)c1ccc(/C=N/O)[n+](Cc2ccccc2)c1,inconclusive: -1.9%
3,CCOc1ccc(C(=O)C[n+]2ccc(C(=O)NCCO)cc2)cc1,inactive: 12.4%
4,COc1cc(C(=O)Nc2ccc(S(=O)(=O)N3CCc4ccccc43)cc2)cc(OC)c1OC,inactive: -2.6%
5,CN1CCN(c2ccc(CNC(=O)c3cc4ccccc4o3)cc2)CC1,inconclusive: 3.9%
6,CC(C)(C)c1ccc(C(=O)NNC(=S)NCc2ccco2)cc1,inconclusive: -37.1%
7,C=CCn1c(SCC(=O)Nc2c(C)n(C)n(-c3ccccc3)c2=O)nc2sc(C)c(C)c2c1=O,inactive: 0.8%
8,Cc1nc(C(=O)NNC(=O)c2ccccc2Cl)c(C(F)(F)F)o1,inconclusive: -2.3%
9,Cc1cccc(NC(=O)N(C)Cc2cccs2)c1,inconclusive: 41.2%
10,Cc1cc(C)n2nc(N)c(N=Nc3ccccc3)c2n1,inconclusive: 35.5%
11,O=C(OC(C(=O)NC1CCCCC1)c1ccc(C(F)(F)F)cc1)c1ccco1 (stereo not given),inconclusive: -7%
12,CC(OC(=O)Cc1ccccc1[N+](=O)[O-])C(=O)Nc1ccc(Cl)cn1 (stereo not given),inconclusive: 1.9%
13,CCNC(=S)NC(=NCc1cccnc1)Nc1nc(C)cc(C)n1,inconclusive: 7.8%
14,O=C(Nc1nc2ccc(Br)cc2s1)c1ccco1,inconclusive: 6.4%
15,O=C(O)c1ccc(CP(=O)(c2ccccc2)c2ccccc2)cc1,inconclusive: -31%
16,CCCCCCCn1c(=O)c(C(=O)OC)c(N)c2ccccc21,inconclusive: -8.6%
17,O=C(NCCc1cccs1)C(c1ccccc1)c1ccccc1,inconclusive: 12.1%
18,Cc1cccn2c(=O)c(C=C(C#N)C#N)c(N3CCN(C)CC3)nc12,inconclusive: -10.4%
19,CCOc1ccc(NC(=O)CN(C)C(=O)c2ccccc2OCc2c(C)noc2C)cc1OCC,inconclusive: 9.5%
20,CCOc1cc(OCC)cc(C(=O)N2CCC[C@H]2C(=O)N2CCC[C@H]2C(=O)NCc2ccccn2)c1,inactive: -5.7%
21,O=C(NCc1ccco1)Nc1ccc(OC(F)(F)F)cc1,inconclusive: -40.2%
22,Cc1cccc(Cc2nnc(CCC(=O)N(C)CCc3ccccc3)o2)c1,inconclusive: -5.1%
23,COc1ccc(OC)c(NC(=O)Cc2coc3ccc(C)cc23)c1,inactive: -17.2%
24,CCCCN(C(=O)Cc1ccc2c(c1)OCCO2)c1c(N)n(CCC)c(=O)[nH]c1=O,inconclusive: 16.4%
25,CCOC(=O)CC1NC(=O)c2ccccc21 (stereo not given),inactive: -4.1%

# Part of the list above, with tabs:
row	Compound	inhibition
11	O=C(OC(C(=O)NC1CCCCC1)c1ccc(C(F)(F)F)cc1)c1ccco1 (stereo not given)	inconclusive: -7%
16	CCCCCCCn1c(=O)c(C(=O)OC)c(N)c2ccccc21	inconclusive: -8.6%

# From PubChem BioAssay AID588497 (NMMLSC, 2011)
